Source: the supplement of paper PMC10689618
Structures can show the parent of a compound that is named as a salt. The list shows a part of the results. Repeats are few or missing, and single values can be far off.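 Primary human fetal astrocytes engulfed labelled rat cortical synaptosomes, measured as a red/green ratio corrected for calcein live-cell signal and scaled to the plate median. Toxicity meant calcein falling over 30%; decreased phagocytosis meant below 70% of median above 5 µM.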

Tests used:
Settings in all cases: 24 h
Human fetal astrocytes [1] = experiment: loss of total cells relative to no-compound high-control median (toxicity); higher = more toxic (fewer cells)
Human fetal astrocytes [2] = experiment: as above; remark: listed apart in the source
Human fetal astrocytes [3] = experiment: synaptosome phagocytosis (pHrodo/calcein intensity ratio) relative to plate median of data wells; higher = more phagocytosis
Human fetal astrocytes [4] = experiment: as above; remark: listed apart in the source

Row | Structure (SMILES) | loss of total cells (Human fetal astrocytes [1]; 1.39 µM) | loss of total cells (Human fetal astrocytes [1]; 2.78 µM) | loss of total cells (Human fetal astrocytes [1]; 5.56 µM) | loss of total cells (Human fetal astrocytes [1]; 11.11 µM) | loss of total cells (Human fetal astrocytes [1]; 22.22 µM) | loss of total cells (Human fetal astrocytes [2]; 1.39 µM) | loss of total cells (Human fetal astrocytes [2]; 2.78 µM) | loss of total cells (Human fetal astrocytes [2]; 5.56 µM) | loss of total cells (Human fetal astrocytes [2]; 11.11 µM) | loss of total cells (Human fetal astrocytes [2]; 22.22 µM) | synaptosome phagocytosis (Human fetal astrocytes [3]; 1.39 µM) | synaptosome phagocytosis (Human fetal astrocytes [3]; 2.78 µM) | synaptosome phagocytosis (Human fetal astrocytes [3]; 5.56 µM) | synaptosome phagocytosis (Human fetal astrocytes [3]; 11.11 µM) | synaptosome phagocytosis (Human fetal astrocytes [3]; 22.22 µM) | synaptosome phagocytosis (Human fetal astrocytes [4]; 1.39 µM) | synaptosome phagocytosis (Human fetal astrocytes [4]; 2.78 µM) | synaptosome phagocytosis (Human fetal astrocytes [4]; 5.56 µM) | synaptosome phagocytosis (Human fetal astrocytes [4]; 11.11 µM) | synaptosome phagocytosis (Human fetal astrocytes [4]; 22.22 µM)
1 | NS(=O)(=O)c1cc2c(cc1Cl)NCNS2(=O)=O [Hydrochlorothiazide] | 9.6% | -17.1% | 0.8% | -10.3% | -1.6% | -2.7% | -4.4% | -21.6% | 0.3% | 4.6% | 104% | 124% | 92% | 90.2% | 87.6% | 99.8% | 78.7% | 97.2% | 90.7% | 119%
2 | COc1ccc2c(c1)c(CC(=O)O)c(C)n2C(=O)c1ccc(Cl)cc1 [Indomethacin] | -4.3% | 1.4% | 15.5% | 9.5% | 14% | 3.9% | -23.4% | -12.5% | -22.2% | 3.3% | 118% | 138% | 91.1% | 103% | 119% | 123% | 109% | 94% | 91.9% | 92.2%
3 | O=C(C1CCCCC1)N1CC(=O)N2CCc3ccccc3C2C1 (stereo not given) [Praziquantel] | -27% | -8.6% | 8.9% | 18.1% | 11.2% | 3.3% | 5.8% | -16.7% | -3.7% | 1.5% | 88.5% | 98.6% | 94.8% | 115% | 114% | 100% | 115% | 102% | 97.9% | 88.4%
4 | CCCCCN(CCCCC)C(=O)C(CCC(=O)O)NC(=O)c1ccc(Cl)c(Cl)c1 (stereo not given) [Lorglumide sodium] | -14.7% | 16.7% | -4.2% | 1% | 7.5% | 19.9% | 6.1% | 20.3% | 3.8% | 15.2% | 114% | 92.8% | 116% | 113% | 119% | 110% | 126% | 109% | 119% | 83%
5 | O=C1CCc2cc(OCCCCc3nnnn3C3CCCCC3)ccc2N1 [Cilostazol] | -16.9% | -13.2% | -8.8% | -11.2% | -4.9% | -35.5% | 0.8% | -5.6% | 1.6% | -5.9% | 85.6% | 114% | 78.9% | 101% | 87.6% | 97.5% | 87% | 119% | 121% | 102%
6 | CN(C)CCC=C1c2ccccc2C=Cc2ccccc21 [Cyclobenzaprine hydrochloride] | -12.1% | -12.3% | -6% | 5.8% | 14.7% | -2.5% | 6.9% | 5.8% | 11.3% | -6.8% | 70.4% | 56.8% | 69.9% | 70.2% | 52.6% | 84.5% | 105% | 103% | 83.7% | 102%
7 | NC1(C(=O)O)CC1 [1-Aminocyclopropanecarboxylic acid hydrochloride] | 5.1% | 6.9% | -8.8% | 6.7% | 10.9% | -9% | 5.4% | 5.9% | 20.3% | 2.2% | 113% | 104% | 109% | 121% | 102% | 93.1% | 118% | 118% | 98.9% | 102%
8 | CN1CCC(=C2c3ccccc3CC(=O)c3sccc32)CC1 [Ketotifen fumarate] | -10% | -4.1% | 14.6% | -1.9% | 5.6% | 7.4% | -22.7% | -7% | 11.8% | -0.3% | 118% | 98.2% | 94.8% | 92.6% | 116% | 117% | 107% | 96.9% | 69.1% | 65.8%
9 | CCN(CC)CCNC(=O)c1ccc(N)cc1 [Procainamide hydrochloride] | -4% | -11.7% | -11.2% | 1.1% | -23.9% | 8.6% | -20% | -1.4% | 4.9% | -8.8% | 133% | 90.6% | 139% | 112% | 110% | 124% | 136% | 105% | 123% | 115%
10 | CCCN(CCC)CCc1cccc2c1CC(=O)N2 [Ropinirole hydrochloride] | -9% | -2.1% | 4.5% | -5% | -17.3% | -27.4% | -23.8% | -9.9% | -0.3% | 0.3% | 108% | 123% | 119% | 89.3% | 127% | 125% | 106% | 103% | 80.2% | 92.1%
11 | OCCN(CCO)c1nc(N2CCCCC2)c2nc(N(CCO)CCO)nc(N3CCCCC3)c2n1 [Dipyridamole] | -10.5% | -13.7% | -5.8% | 9.4% | -8% | 5% | -17.3% | 13.2% | -8.4% | 25.2% | 104% | 78.2% | 109% | 89.5% | 94.5% | 96.4% | 80% | 91.2% | 93.9% | 98.7%
12 | CC/C(=C(\c1ccccc1)c1ccc(OCCN(C)C)cc1)c1ccccc1 [Tamoxifen citrate] | -31.4% | 0.9% | -4.5% | 14.9% | 46.9% | -6.2% | -3.7% | 19.5% | 66% | 83% | 84.7% | 71.8% | 47.2% | 30.6% | 4.6% | 93.1% | 106% | 73.6% | 59.9% | 16.3%
